Measurements reported in PubChem BioAssay AID1259254 (NCATS, 2017)
In all, the deposit lists about 59,000 reagents; this is an unselected part. Of all reagents, about 1,550 (2.6%) were called active. 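G2 share is only a proxy for re-replication; each gene was hit by three separate siRNAs, and active genes were retested.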 A number with no mark means an inactive call. Reagents against one gene are numbered here. Not all columns of the deposit are shown. Reagent sequences are not shown. Not stated in the record: the amount of reagent.

- Aim: 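Gene knock-downs that lead to re-replication, shown by excess G2 DNA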 (primary screen)
- System: human HCT116 colorectal cancer cells
- Reagent: single siRNA against human genes
- Timing: 3 days
- Measurement: 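Imaged Hoechst DNA stain sorts each cell into a cycle phase by DNA amount; per plate, G2 fraction set to 0% for non-targeting and 100% for GMNN siRNA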
- Scale: G2 robust z-score: higher = more G2 cells, more excess DNA replication
- Rule for the call: 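An siRNA counts as active if its G2 robust z-score lies at least 5 MADs above the screen median; here such calls match roughly 38% of GMNN control or more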

What did the screen give for PRDM9 #1?
G2 robust z-score: 0.288

With PRDM9 #2, what was measured?
G2 robust z-score: 0.733

For PRDM9 #3, what was measured?
G2 robust z-score: 3.11

For MS4A13 #1, what does the deposit list?
G2 robust z-score: 3.74

What did the screen give for MS4A13 #2?
G2 robust z-score: 4.5

Which result is listed for MS4A13 #3?
G2 robust z-score: 0.357

A few values from the entries so far.
MS4A13 #3, G2 robust z-score → 0.357
For “G2 robust z-score”, MS4A13 #2 has 4.5

More entries follow.
Which result is listed for SLC3A1 #1?
G2 robust z-score: 6.3 (active)

For SLC3A1 #2, what does the deposit list?
G2 robust z-score: -0.0616

With SLC3A1 #3, what was measured?
G2 robust z-score: -0.936

For ENO4 #1, what was measured?
G2 robust z-score: -1.38

For ENO4 #2, how do the results read?
G2 robust z-score: 1.58

With ENO4 #3, how do the results read?
G2 robust z-score: -0.0644
